The list is a part of this screen's results and no random one: it is rich in T/C values a quarter to a half above the control, in often repeated tests (any T/C) and in doses without a T/C. Other doses and runs of a compound stand elsewhere. T/C: endpoint of the treated group in % of that of the vehicle group. Some entries give survivors of the animals treated and no T/C: the source holds a T/C of zero for them, seemingly a mark for toxic or unscored doses. Some doses without a T/C left all or most animals alive at the check, yet need not have been tolerated: survival well below the control is almost never listed, so the zero probably covers shortened survival too. Survivors were counted at the toxicity check, usually on the fifth day, unless a day is given; later deaths do not show. Schedule codes are those of the source, read here as Q, the interval in days (D) or hours (H), X, the number of doses. Some entries hold several experiments; their values stand side by side, smallest first. Some structures stand for samples that the source files as different forms (salt, stereo form or complex); doses refer to the form tested. Brackets with × stand for listed records that agree. For survival time, the PubChem record calls one and a half times the control and up active, and a quarter to a half above the control has no call in these data; cut-offs in other NCI protocols can differ. Some T/C values carry the count of animals alive at the toxicity check (mostly the fifth day); where none is given, no animal had died by that day.
System: CD2F1 mice, L1210 leukemia ip, survival T/C
Assay: NCI In Vivo Anticancer Drug Screen. Data for tumor model L1210 Leukemia (intraperitoneal) in CD2F1 (CDF1) mice
Details: higher T/C = longer survival
Summary of the method: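 Transplantable tumor in mice; compound-treated vs vehicle-treated groups. Read-out = treated/control ratio of the measured endpoint.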

[1] = T/C endpoint: mean survival time, dose: 100.0 mg/kg/injection, schedule: Q04DX003 (ip), vehicle: saline with Tween-80
[2] = T/C endpoint: mean survival time, dose: 200.0 mg/kg/injection, schedule: Q04DX003 (ip), vehicle: saline with Tween-80
[3] = T/C endpoint: mean survival time, dose: 400.0 mg/kg/injection, schedule: Q04DX003 (ip), vehicle: saline with Tween-80
[4] = T/C endpoint: mean survival time, dose: 200.0 mg/kg/injection, schedule: Q04DX002 (ip), vehicle: saline
[5] = T/C endpoint: mean survival time, dose: 400.0 mg/kg/injection, schedule: Q04DX002 (ip), vehicle: saline
[6] = T/C endpoint: mean survival time, dose: 400.0 mg/kg/injection, schedule: Q01DX001 (ip), vehicle: saline with Tween-80
[7] = T/C endpoint: mean survival time, dose: 300.0 mg/kg/injection, schedule: Q01DX001 (ip), vehicle: saline
[8] = T/C endpoint: mean survival time, dose: 10.0 mg/kg/injection, schedule: Q01DX009 (ip), vehicle: other

CC(C(=O)O)C1(O)CCCCC1 (centres undefined)
survivor count [1]: 0 of 6 | survivor count [2]: 0 of 6 | survivor count [3]: 0 of 6

CC[O+](CC)CC
survivor count (T/C endpoint: mean survival time, dose: 100.0 mg/kg/injection, schedule: Q04DX002 (ip), vehicle: saline): 1 of 3 | survivor count [4]: 1 of 3 | survivor count [5]: 0 of 3

O=C1CCCCCC2=NC12 (centres undefined)
survivor count (T/C endpoint: median survival time, dose: 100.0 mg/kg/injection, schedule: Q01DX009 (ip), vehicle: Klucel (hydroxypropylcellulose) (HPC)): 1 of 6

CCC(=O)C(C)(C)c1ccccc1 (tested in a mixture with another compound)
survivor count [6]: 3 of 6

C[n+]1ccc(Nc2ccc(NC(=O)c3ccc(Nc4cc[n+](C)c5ccc([N+](=O)[O-])cc45)cc3)cc2)cc1
T/C (T/C endpoint: mean survival time, dose: 8.0 mg/kg/injection, schedule: Q01DX009 (ip), vehicle: water): 141 % of control | T/C (T/C endpoint: mean survival time, dose: 400.0 mg/kg/injection, schedule: Q04DX003 (ip), vehicle: saline): 148 % of control

O=C(Nc1cccnc1)c1ccc([N+](=O)[O-])s1
survivor count (T/C endpoint: mean survival time, dose: 400.0 mg/kg/injection, schedule: Q01DX005 (ip), vehicle: saline + alcohol): 4 of 6 | T/C (T/C endpoint: mean survival time, dose: 400.0 mg/kg/injection, schedule: Q01DX005 (ip), vehicle: saline): 136 % of control | survivor count (T/C endpoint: mean survival time, dose: 800.0 mg/kg/injection, schedule: Q01DX005 (ip), vehicle: saline + alcohol): 5 of 6 | survivor count (T/C endpoint: mean survival time, dose: 800.0 mg/kg/injection, schedule: Q01DX005 (ip), vehicle: saline): 3 of 6 | T/C (T/C endpoint: median survival time, dose: 100.0 mg/kg/injection, schedule: Q01DX005 (ip), vehicle: saline): 128 and 128 % of control [5 of 6 alive] | T/C (T/C endpoint: median survival time, dose: 166.67 mg/kg/injection, schedule: Q01DX005 (ip), vehicle: saline): 128 % of control | T/C (T/C endpoint: median survival time, dose: 200.0 mg/kg/injection, schedule: Q01DX005 (ip), vehicle: saline): 139 % of control [4 of 6 alive] | T/C (T/C endpoint: median survival time, dose: 277.78 mg/kg/injection, schedule: Q01DX005 (ip), vehicle: saline): 144 % of control | survivor count (T/C endpoint: median survival time, dose: 400.0 mg/kg/injection, schedule: Q01DX005 (ip), vehicle: saline): 2 of 6

NNC(=O)c1ccc(-c2ccccc2)cc1
survivor count (T/C endpoint: mean survival time, dose: 200.0 mg/kg/injection, schedule: Q01DX009 (ip), vehicle: water): 1 of 6 | survivor count (T/C endpoint: mean survival time, dose: 400.0 mg/kg/injection, schedule: Q01DX009 (ip), vehicle: water): 1 of 6

CNC(CCNCCc1ccccc1)CNCCc1ccccc1 (centres undefined)
survivor count [7]: 0 of 6

N=C(N)c1ccc(N=Nc2c(O)ccc3cc(O)ccc23)cc1
survivor count (T/C endpoint: median survival time, dose: 200.0 mg/kg/injection, schedule: Q01DX005 (ip), vehicle: Klucel (hydroxypropylcellulose) (HPC)): 4 of 6

CCCCCC(C)C1=NC(C)(C)CC(C)O1 (centres undefined)
survivor count [6]: 0 of 6

O=C1NCCS1
survivor count [7]: 3 of 6

CC(=O)c1ccc2c3c(ccc([N+](=O)[O-])c13)CC2
survivor count (T/C endpoint: mean survival time, dose: 200.0 mg/kg/injection, schedule: Q01DX009 (ip), vehicle: saline with Tween-80): 3 of 6 | survivor count (T/C endpoint: mean survival time, dose: 400.0 mg/kg/injection, schedule: Q01DX009 (ip), vehicle: saline with Tween-80): 3 of 6

Cc1c(O)/c(=C\O)c2nc3c(=O)ccc(C(=O)NCCN(C)C)c3[nH]c2c1=O
T/C (T/C endpoint: median survival time, dose: 30.0 mg/kg/injection, schedule: Q01DX005 (ip), vehicle: water): 125 % of control | T/C (T/C endpoint: median survival time, dose: 50.0 mg/kg/injection, schedule: Q01DX005 (ip), vehicle: water): 128, 135, 145 % of control | T/C (T/C endpoint: median survival time, dose: 83.3 mg/kg/injection, schedule: Q01DX005 (ip), vehicle: water): 136 % of control | T/C (T/C endpoint: median survival time, dose: 100.0 mg/kg/injection, schedule: Q01DX005 (ip), vehicle: water): 130 and 147 % of control | T/C (T/C endpoint: median survival time, dose: 138.88 mg/kg/injection, schedule: Q01DX005 (ip), vehicle: water): 135 % of control | survivor count (T/C endpoint: median survival time, dose: 200.0 mg/kg/injection, schedule: Q01DX005 (ip), vehicle: water): 3 of 6 and 6 of 6

Cc1cc(C)c2ccc(Cl)nc2n1
survivor count (T/C endpoint: mean survival time, dose: 150.0 mg/kg/injection, schedule: Q01DX001 (ip), vehicle: other): 0 of 6 | survivor count (T/C endpoint: mean survival time, dose: 300.0 mg/kg/injection, schedule: Q01DX001 (ip), vehicle: other): 0 of 6

CCCCN(Cc1ccccc1)CC(O)C[NH-].CS(C)=O.[Cl-].[Cl-].[Pt+4] (centres undefined)
survivor count (T/C endpoint: median survival time, dose: 100.0 mg/kg/injection, schedule: Q04DX003 (ip), vehicle: saline): 5 of 6 | survivor count (T/C endpoint: median survival time, dose: 200.0 mg/kg/injection, schedule: Q04DX003 (ip), vehicle: saline): 2 of 6

CCCCC1(C(C)CC(C)(C)C)NC(C)(C)CC(C)O1 (centres undefined)
survivor count [2]: 6 of 6 | survivor count [3]: 2 of 6

COC1C(CO)OC(n2c3c(Cl)cccc3c3c4c(c5c6cccc(Cl)c6[nH]c5c32)C(=O)NC4=O)C(O)C1O (centres undefined)
T/C (T/C endpoint: median survival time, dose: 25.0 mg/kg/injection, schedule: Q01DX009 (ip), vehicle: distilled water + Tween-80): 131 % of control | T/C (T/C endpoint: median survival time, dose: 50.0 mg/kg/injection, schedule: Q01DX009 (ip), vehicle: distilled water + Tween-80): 125 % of control | T/C (T/C endpoint: median survival time, dose: 100.0 mg/kg/injection, schedule: Q01DX009 (ip), vehicle: distilled water + Tween-80): 138 % of control | T/C (T/C endpoint: median survival time, dose: 200.0 mg/kg/injection, schedule: Q01DX009 (ip), vehicle: distilled water + Tween-80): 136 % of control | T/C (T/C endpoint: median survival time, dose: 277.8 mg/kg/injection, schedule: Q01DX009 (ip), vehicle: distilled water + Tween-80): 125 % of control [5 of 6 alive]

O=S(=O)(CS(=O)(=O)Nc1ccccc1)Nc1ccccc1
survivor count [2]: 3 of 6 | survivor count [3]: 2 of 6

O=Cc1ccccc1O
survivor count [4]: 3 of 3 | survivor count [5]: 0 of 3

COC(=O)[C@H]1[C@H]2C[C@@H]3c4[nH]c5cc(OC)ccc5c4CCN3C[C@H]2C[C@@H](OC(=O)c2cc(OC)c(OC)c(OC)c2)[C@@H]1OC
survivor count (T/C endpoint: mean survival time, dose: 12.0 mg/kg/injection, schedule: Q01DX009 (ip), vehicle: saline with Tween-80): 6 of 6 | survivor count (T/C endpoint: mean survival time, dose: 25.0 mg/kg/injection, schedule: Q04DX003 (ip), vehicle: saline with Tween-80): 6 of 6 | survivor count [1]: 6 of 6 | survivor count [2]: 5 of 6 | survivor count [3]: 4 of 6

O=NN(CCCl)C(=S)Nc1ccccc1
survivor count (T/C endpoint: mean survival time, dose: 400.0 mg/kg/injection, schedule: Q01DX001 (ip), vehicle: other): 1 of 6

CN1N=C(N)c2cn(C3OC(CO)C4OC(C)(C)OC43)c3ncnc1c23 (centres undefined)
survivor count (T/C endpoint: mean survival time, dose: 200.0 mg/kg/injection, schedule: Q01DX005 (ip), vehicle: water): 0 of 3

OC1CC2c3ccccc3C1c1cccc[n+]12 (centres undefined)
survivor count (T/C endpoint: mean survival time, dose: 100.0 mg/kg/injection, schedule: Q04DX003 (ip), vehicle: Klucel (hydroxypropylcellulose) (HPC)): 6 of 6 | survivor count (T/C endpoint: mean survival time, dose: 200.0 mg/kg/injection, schedule: Q04DX003 (ip), vehicle: Klucel (hydroxypropylcellulose) (HPC)): 2 of 6 and 3 of 6 | survivor count (T/C endpoint: mean survival time, dose: 400.0 mg/kg/injection, schedule: Q04DX003 (ip), vehicle: Klucel (hydroxypropylcellulose) (HPC)): 0 of 6 (2×)

Nc1nc(N)c(-c2ccc(Cl)cc2)c(CBr)n1
survivor count (T/C endpoint: mean survival time, dose: 200.0 mg/kg/injection, schedule: Q01DX001 (ip), vehicle: saline with Tween-80): 0 of 3 | survivor count [6]: 0 of 3

O=CN(/C=C1\CC(OO)NC1=O)Cc1ccccc1 (centres undefined)
survivor count [7]: 0 of 6

COC1C(C)OC(OC2CC(C)(O)Cc3cc4c(c(O)c32)C(=O)c2c(O)cc3c(c2C4=O)OC2OC3(C)C(O)C(N(C)C)C2O)C(OC)C1(C)OC (centres undefined)
T/C (T/C endpoint: mean survival time, dose: 1.25 mg/kg/injection, schedule: Q01DX009 (ip), vehicle: other): 115 (2×), 122, 127 % of control | T/C (T/C endpoint: mean survival time, dose: 2.5 mg/kg/injection, schedule: Q01DX009 (ip), vehicle: other): 117 (2×), 122, 127 % of control | T/C (T/C endpoint: mean survival time, dose: 5.0 mg/kg/injection, schedule: Q01DX009 (ip), vehicle: other): 92, 113 (2×), 125 % of control | T/C [8]: 91 % of control [4 of 6 alive] | survivor count [8]: 4 of 6 and 5 of 6

OCC1OC(n2cnc3c(SSc4ncnc5c4ncn5C4CC(O)C(CO)O4)ncnc32)CC1O (centres undefined)
T/C (T/C endpoint: mean survival time, dose: 267.0 mg/kg/injection, schedule: Q01DX001 (ip), vehicle: saline): 125 % of control [5 of 6 alive] | T/C (T/C endpoint: mean survival time, dose: 400.0 mg/kg/injection, schedule: Q01DX001 (ip), vehicle: saline): 130 % of control | T/C (T/C endpoint: mean survival time, dose: 600.0 mg/kg/injection, schedule: Q01DX001 (ip), vehicle: saline): 131 % of control [5 of 6 alive]

— PubChem BioAssay AID256 (DTP/NCI, 2004)
